According to the supplement of paper PMC10849652:
The list shows a part of the results.

Amino acid sequences for entries named in this document (tags omitted). A change or cut given only in a name is not applied to a line headed by its entry.
UniProt P36543, whole entry, looked up: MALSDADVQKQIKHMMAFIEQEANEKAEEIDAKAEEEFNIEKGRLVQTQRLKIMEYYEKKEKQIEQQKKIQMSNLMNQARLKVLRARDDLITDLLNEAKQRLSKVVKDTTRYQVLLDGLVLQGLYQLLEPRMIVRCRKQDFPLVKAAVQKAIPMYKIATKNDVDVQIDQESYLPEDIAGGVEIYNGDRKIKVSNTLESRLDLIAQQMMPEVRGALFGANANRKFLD
UniProt P21281, whole entry, looked up: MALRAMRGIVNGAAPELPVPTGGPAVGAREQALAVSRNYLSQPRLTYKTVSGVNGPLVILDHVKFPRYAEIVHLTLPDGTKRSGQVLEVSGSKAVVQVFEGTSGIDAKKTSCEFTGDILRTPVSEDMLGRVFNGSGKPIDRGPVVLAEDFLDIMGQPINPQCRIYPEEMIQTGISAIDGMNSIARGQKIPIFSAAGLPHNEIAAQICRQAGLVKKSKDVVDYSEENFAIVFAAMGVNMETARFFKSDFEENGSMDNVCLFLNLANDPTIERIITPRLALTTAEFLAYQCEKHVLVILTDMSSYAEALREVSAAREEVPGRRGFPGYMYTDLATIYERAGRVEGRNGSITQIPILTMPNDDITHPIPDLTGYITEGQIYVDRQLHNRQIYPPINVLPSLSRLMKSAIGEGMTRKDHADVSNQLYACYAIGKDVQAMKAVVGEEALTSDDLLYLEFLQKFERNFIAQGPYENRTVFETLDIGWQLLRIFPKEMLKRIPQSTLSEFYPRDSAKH
UniProt P20020: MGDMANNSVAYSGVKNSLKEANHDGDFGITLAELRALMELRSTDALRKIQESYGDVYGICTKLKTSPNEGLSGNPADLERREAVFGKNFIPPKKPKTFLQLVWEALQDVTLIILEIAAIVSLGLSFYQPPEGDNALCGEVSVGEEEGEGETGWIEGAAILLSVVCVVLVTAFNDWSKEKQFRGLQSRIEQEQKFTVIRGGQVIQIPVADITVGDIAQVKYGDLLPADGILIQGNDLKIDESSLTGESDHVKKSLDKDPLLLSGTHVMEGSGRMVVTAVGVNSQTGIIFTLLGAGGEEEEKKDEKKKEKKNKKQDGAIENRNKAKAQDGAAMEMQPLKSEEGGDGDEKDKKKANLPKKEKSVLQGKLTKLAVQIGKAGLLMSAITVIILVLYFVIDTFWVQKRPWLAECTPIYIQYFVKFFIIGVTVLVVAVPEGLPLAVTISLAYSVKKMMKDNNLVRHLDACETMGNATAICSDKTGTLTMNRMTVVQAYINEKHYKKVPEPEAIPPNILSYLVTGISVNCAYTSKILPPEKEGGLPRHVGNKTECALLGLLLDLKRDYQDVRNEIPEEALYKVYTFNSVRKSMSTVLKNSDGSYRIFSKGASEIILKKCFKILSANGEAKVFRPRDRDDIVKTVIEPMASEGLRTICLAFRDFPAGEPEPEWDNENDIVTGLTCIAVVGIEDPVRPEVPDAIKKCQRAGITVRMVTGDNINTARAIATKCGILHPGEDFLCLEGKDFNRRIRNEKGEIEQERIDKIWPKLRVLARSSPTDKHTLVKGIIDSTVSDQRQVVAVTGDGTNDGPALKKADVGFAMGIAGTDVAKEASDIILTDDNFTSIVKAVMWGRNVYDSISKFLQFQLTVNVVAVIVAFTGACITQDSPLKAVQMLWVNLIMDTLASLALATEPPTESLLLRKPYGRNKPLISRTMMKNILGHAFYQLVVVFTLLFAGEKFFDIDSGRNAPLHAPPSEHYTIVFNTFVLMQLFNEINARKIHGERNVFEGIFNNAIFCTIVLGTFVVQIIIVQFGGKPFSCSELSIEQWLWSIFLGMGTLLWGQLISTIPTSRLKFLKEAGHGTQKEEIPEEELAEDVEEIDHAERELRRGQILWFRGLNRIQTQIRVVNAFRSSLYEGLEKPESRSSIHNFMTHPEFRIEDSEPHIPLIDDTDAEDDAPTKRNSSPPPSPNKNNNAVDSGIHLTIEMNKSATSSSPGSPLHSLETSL
UniProt Q8NB49: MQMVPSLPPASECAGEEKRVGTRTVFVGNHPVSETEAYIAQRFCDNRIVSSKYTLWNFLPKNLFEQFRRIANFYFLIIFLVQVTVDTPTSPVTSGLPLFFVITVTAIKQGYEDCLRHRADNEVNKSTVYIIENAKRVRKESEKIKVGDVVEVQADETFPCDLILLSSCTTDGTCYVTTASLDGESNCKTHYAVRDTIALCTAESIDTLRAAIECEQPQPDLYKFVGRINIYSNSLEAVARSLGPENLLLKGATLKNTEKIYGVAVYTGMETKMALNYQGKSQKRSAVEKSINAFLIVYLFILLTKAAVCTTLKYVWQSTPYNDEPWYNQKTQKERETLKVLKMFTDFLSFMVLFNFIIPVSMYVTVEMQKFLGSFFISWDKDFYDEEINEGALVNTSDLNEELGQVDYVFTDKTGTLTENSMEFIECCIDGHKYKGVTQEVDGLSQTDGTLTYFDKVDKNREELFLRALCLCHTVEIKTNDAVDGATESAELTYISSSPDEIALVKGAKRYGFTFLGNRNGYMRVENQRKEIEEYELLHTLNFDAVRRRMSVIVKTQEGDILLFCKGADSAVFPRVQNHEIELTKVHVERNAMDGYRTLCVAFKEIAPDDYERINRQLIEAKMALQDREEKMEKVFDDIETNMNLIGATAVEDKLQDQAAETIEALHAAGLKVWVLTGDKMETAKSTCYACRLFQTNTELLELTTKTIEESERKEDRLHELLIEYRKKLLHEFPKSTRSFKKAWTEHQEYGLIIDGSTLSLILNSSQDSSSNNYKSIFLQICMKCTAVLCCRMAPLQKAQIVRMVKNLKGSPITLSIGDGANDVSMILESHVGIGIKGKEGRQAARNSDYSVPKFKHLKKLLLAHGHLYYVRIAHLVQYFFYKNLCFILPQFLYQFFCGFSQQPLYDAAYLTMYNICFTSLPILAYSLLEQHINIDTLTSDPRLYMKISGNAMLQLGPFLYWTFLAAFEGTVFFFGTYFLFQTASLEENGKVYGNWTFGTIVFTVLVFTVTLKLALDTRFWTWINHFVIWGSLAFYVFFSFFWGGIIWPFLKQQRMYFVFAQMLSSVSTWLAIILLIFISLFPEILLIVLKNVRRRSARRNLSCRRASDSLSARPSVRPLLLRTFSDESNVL
UniProt O75947: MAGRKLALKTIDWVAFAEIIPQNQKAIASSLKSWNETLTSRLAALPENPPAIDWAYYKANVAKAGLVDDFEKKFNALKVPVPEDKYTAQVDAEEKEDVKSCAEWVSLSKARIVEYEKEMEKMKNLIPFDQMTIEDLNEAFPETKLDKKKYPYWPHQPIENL
UniProt Q9H7F0: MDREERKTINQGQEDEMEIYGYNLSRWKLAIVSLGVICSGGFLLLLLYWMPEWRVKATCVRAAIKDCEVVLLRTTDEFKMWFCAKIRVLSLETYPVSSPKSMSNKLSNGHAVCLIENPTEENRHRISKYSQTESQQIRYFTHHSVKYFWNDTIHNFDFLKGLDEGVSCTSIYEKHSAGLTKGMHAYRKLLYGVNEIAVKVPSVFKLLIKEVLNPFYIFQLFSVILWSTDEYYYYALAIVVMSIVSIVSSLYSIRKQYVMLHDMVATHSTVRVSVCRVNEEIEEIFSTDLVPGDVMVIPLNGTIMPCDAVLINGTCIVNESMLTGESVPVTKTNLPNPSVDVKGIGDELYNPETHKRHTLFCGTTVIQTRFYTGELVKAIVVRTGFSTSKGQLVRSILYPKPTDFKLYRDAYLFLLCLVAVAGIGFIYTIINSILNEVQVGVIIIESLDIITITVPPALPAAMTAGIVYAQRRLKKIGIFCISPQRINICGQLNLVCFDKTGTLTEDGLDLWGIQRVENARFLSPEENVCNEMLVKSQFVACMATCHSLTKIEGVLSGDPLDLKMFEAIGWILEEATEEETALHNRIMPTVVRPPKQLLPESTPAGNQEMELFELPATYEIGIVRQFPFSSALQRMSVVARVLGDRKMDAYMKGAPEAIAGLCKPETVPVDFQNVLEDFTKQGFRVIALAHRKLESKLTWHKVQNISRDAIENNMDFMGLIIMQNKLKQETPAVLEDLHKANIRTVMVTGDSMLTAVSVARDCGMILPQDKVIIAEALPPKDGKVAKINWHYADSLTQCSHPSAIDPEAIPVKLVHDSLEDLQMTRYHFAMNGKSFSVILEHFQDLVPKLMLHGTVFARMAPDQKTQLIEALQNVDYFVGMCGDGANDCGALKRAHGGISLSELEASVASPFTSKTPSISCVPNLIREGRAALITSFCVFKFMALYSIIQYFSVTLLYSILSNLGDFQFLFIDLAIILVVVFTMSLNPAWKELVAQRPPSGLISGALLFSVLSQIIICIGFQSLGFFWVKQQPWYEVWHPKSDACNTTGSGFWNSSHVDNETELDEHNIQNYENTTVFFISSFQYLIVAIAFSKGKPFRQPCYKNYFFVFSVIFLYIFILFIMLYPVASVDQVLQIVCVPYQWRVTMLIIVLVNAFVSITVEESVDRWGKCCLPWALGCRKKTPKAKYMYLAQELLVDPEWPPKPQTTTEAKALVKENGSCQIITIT
UniProt P54709, whole entry, looked up: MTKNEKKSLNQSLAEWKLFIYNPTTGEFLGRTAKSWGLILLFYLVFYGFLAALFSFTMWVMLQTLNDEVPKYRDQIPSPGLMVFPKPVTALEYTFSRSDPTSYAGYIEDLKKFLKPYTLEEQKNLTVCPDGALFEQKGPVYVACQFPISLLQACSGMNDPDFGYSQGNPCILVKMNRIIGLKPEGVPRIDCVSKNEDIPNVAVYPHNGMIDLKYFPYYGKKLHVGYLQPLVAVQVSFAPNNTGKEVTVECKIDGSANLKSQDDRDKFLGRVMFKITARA
UniProt Q93084: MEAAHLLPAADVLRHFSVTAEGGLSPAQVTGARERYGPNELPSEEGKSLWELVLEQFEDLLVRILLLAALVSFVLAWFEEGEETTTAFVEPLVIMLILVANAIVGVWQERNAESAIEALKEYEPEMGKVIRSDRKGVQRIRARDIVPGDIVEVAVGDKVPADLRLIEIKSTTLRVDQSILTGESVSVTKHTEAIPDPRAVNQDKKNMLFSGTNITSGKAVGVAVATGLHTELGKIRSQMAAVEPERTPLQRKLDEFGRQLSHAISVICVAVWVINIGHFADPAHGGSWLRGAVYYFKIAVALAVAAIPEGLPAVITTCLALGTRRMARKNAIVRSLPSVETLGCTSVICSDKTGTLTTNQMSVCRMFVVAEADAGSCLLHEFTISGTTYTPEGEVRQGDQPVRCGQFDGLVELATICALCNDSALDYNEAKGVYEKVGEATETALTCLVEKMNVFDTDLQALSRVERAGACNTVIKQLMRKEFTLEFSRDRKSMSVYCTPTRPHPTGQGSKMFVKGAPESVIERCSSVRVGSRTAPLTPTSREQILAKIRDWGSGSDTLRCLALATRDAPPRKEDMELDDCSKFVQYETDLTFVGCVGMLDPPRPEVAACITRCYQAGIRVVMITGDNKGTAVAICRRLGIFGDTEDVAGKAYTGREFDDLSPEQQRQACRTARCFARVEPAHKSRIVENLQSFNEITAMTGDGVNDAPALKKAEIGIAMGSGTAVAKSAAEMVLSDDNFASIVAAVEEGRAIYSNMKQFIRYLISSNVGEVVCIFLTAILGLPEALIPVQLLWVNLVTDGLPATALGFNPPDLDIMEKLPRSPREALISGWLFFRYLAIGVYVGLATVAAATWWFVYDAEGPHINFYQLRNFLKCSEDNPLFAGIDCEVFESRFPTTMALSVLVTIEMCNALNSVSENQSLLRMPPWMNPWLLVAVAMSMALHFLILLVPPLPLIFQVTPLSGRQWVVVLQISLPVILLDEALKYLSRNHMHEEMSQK
UniProt Q9NT62, whole entry, looked up: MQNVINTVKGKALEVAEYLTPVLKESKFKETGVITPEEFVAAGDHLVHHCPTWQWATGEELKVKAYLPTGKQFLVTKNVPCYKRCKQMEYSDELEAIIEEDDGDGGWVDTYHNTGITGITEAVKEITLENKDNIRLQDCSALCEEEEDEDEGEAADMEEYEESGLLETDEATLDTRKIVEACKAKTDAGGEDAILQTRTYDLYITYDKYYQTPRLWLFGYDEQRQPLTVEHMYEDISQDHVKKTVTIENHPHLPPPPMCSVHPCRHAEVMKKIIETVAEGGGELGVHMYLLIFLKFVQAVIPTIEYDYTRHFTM
UniProt Q9NVP2, whole entry, looked up: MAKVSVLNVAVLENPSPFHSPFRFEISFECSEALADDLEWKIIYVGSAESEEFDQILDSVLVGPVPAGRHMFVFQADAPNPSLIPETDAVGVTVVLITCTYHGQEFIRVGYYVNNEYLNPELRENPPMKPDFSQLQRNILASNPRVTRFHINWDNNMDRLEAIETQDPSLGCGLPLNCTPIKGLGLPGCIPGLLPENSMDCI
UniProt Q7L266: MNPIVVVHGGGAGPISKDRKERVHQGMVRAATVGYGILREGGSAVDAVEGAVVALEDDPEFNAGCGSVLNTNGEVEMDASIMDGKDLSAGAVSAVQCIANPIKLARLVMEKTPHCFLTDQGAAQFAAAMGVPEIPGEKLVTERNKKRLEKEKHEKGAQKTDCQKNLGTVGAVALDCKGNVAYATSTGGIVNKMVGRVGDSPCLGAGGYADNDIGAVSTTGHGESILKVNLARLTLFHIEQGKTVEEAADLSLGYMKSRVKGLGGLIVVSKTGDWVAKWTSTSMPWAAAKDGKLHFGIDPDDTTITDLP

What was measured:
Experiment in all cases: log2 fold change, soluble protein after heating vs DMSO (PISA); higher = thermal stabilisation; K562 lysate, 10 uM; active = over 0.2 and 3.5 SD of the protein, either way, in both replicates (recomputed)
vemurafenib = compound: CCCS(=O)(=O)Nc1ccc(F)c(C(=O)c2c[nH]c3ncc(-c4ccc(Cl)cc4)cc23)c1F [vemurafenib]
Method in brief: (§1)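 A 30 min treatment with 10 μM compound was applied to crude K562 extract at 1 mg/mL protein in PBS pH 7.4 with 1 mM MgCl2. Heating for 3 min spanned 48°C-58°C, after which aliquots were pooled, adjusted to 0.5% NP-40 at 4°C and spun at 21,000xg for 90 min. TMTpro 16plex LC-MS/MS of the supernatant, with channel sums equalised, gave values recorded as log-two fold change in thermal stability against solvent controls, from duplicates.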

[1] = compound: CCCS(=O)(=O)Nc1ccc(F)c(C(=O)c2c[nH]c3ncc(Cl)cc23)c1F
Method in brief: as §1

barasertib = compound: CCN(CCCOc1ccc2c(Nc3cc(CC(=O)Nc4cccc(F)c4)[nH]n3)ncnc2c1)CCOP(=O)(O)O [barasertib]
Method in brief: as §1

[2] = compound: CC[C@@H]1C(=O)N(C)c2cnc(Nc3ccc(C(=O)NC4CCN(C)CC4)cc3OC)nc2N1C1CCCC1
Method in brief: as §1

volasertib = compound: CC[C@@H]1C(=O)N(C)c2cnc(Nc3ccc(C(=O)N[C@H]4CC[C@H](N5CCN(CC6CC6)CC5)CC4)cc3OC)nc2N1C(C)C [volasertib]
Method in brief: as §1

[3] = compound: CCn1c(C(=O)N(C2CC2)C2CC2)cc2c3c(ncn3C)c(Nc3cc(C)n(C)n3)nc21
Method in brief: as §1

[4] = compound: CCn1cc(-c2ccnc3[nH]c(-c4cccc(CN(C)C)c4)cc23)c(-c2ccc(NC(=O)N(C)C)cc2)n1
Method in brief: as §1

[5] = compound: CN1CCC(CNc2ccc3ncc(-c4cccc(OC(F)(F)F)c4)n3n2)CC1
Method in brief: as §1

saracatinib = compound: CN1CCN(CCOc2cc(OC3CCOCC3)c3c(Nc4c(Cl)ccc5c4OCO5)ncnc3c2)CC1 [saracatinib]
Method in brief: as §1

sotrastaurin = compound: CN1CCN(c2nc(C3=C(c4c[nH]c5ccccc45)C(=O)NC3=O)c3ccccc3n2)CC1 [sotrastaurin]
Method in brief: as §1

alvocidib = compound: CN1CC[C@H](c2c(O)cc(O)c3c(=O)cc(-c4ccccc4Cl)oc23)[C@H](O)C1 [alvocidib]
Method in brief: as §1

Tubastatin A = compound: CN1CCc2c(c3ccccc3n2Cc2ccc(C(=O)NO)cc2)C1 [Tubastatin A]
Method in brief: as §1

[6] = compound: CNC(=O)C1=CC=CC=C1NC2=NC(=NC=C2Cl)NC3=C(C=C(C=C3)N4CCOCC4)OC
Method in brief: as §1

defactinib = compound: CNC(=O)c1ccc(Nc2ncc(C(F)(F)F)c(NCc3nccnc3N(C)S(C)(=O)=O)n2)cc1 [defactinib]
Method in brief: as §1

[7] = compound: CNc1nc(-c2ccc3c(N)n[nH]c3c2)cc(N2C[C@@H](C(=O)NC3CCCCC3)CC[C@H]2C)n1
Method in brief: as §1

encorafenib = compound: COC(=O)N[C@@H](C)CNc1nccc(-c2cn(C(C)C)nc2-c2cc(Cl)cc(NS(C)(=O)=O)c2F)n1 [encorafenib]
Method in brief: as §1

[8] = compound: COC(=O)[C@H](CCSC)NC(=O)C1=C(C=C(C=C1)NC[C@H](CS)N)C2=CC=CC=C2
Method in brief: as §1

alisertib = compound: COc1cc(Nc2ncc3c(n2)-c2ccc(Cl)cc2C(c2c(F)cccc2OC)=NC3)ccc1C(=O)O [alisertib]
Method in brief: as §1

[9] = compound: COc1cc2nc(-c3cc(F)ccc3O)nc(N[C@@H]3CNC[C@H]3C(C)(C)O)c2cc1OC
Method in brief: as §1

gefitinib = compound: COc1cc2ncnc(Nc3ccc(F)c(Cl)c3)c2cc1OCCCN1CCOCC1 [gefitinib]
Method in brief: as §1

Measured: log2 fold change

ASPH (UniProt Q12797)
inactive: vemurafenib 0.009 | [1] 0.009 | barasertib -0.001 | [2] 0.03 | volasertib 0.002 | [3] -0.018 | [4] 0.011 | [5] -0.024 | saracatinib 0.055 | sotrastaurin 0.01 | alvocidib -0.012 | Tubastatin A 0.018 | [6] -0.01 | defactinib 0.023 | [7] -0.006 | encorafenib 0.018 | [8] -0.047 | alisertib 0.042 | [9] -0.025 | gefitinib -0.041

ATP6V1E1 (UniProt P36543)
inactive: vemurafenib -0.136 | [1] -0.006 | barasertib -0.042 | [2] 0.03 | volasertib 0.009 | [3] -0.011 | [4] -0.2 | [5] 0.116 | saracatinib -0.018 | sotrastaurin -0.011 | alvocidib -0.053 | Tubastatin A 0.03 | [6] -0.034 | defactinib 0.116 | [7] 0.011 | encorafenib -0.022 | [8] 0.04 | alisertib 0.02 | [9] 0.007 | gefitinib 0.048

ATP6V1B2 (UniProt P21281)
inactive: vemurafenib 0.018 | [1] -0.009 | barasertib -0.042 | [2] 0.02 | volasertib 0.005 | [3] -0.037 | [4] -0.066 | [5] 0.079 | saracatinib 0.004 | sotrastaurin -0.006 | alvocidib -0.048 | Tubastatin A 0.045 | [6] -0.008 | defactinib 0.003 | [7] -0.012 | encorafenib -0.019 | [8] -0.033 | alisertib -0.038 | [9] -0.002 | gefitinib -0.009

ATP2B1 isoform 1 (UniProt P20020)
inactive: vemurafenib 0.024 | [1] 0.004 | barasertib 0.056 | [2] -0.015 | volasertib -0.016 | [3] -0.021 | [4] -0.056 | [5] 0.051 | saracatinib 0.006 | sotrastaurin 0.025 | alvocidib -0.011 | Tubastatin A 0.036 | [6] -0.004 | defactinib -0.055 | [7] 0.022 | encorafenib 0.027 | [8] 0.03 | alisertib -0.005 | [9] 0.018 | gefitinib 0.03

ATP11C (UniProt Q8NB49)
inactive: vemurafenib 0.04 | [1] 0.006 | barasertib 0.038 | [2] 0.053 | volasertib -0.023 | [3] -0.042 | [4] -0.043 | [5] 0.035 | saracatinib 0.029 | sotrastaurin 0.022 | alvocidib -0.033 | Tubastatin A 0.001 | [6] -0.043 | defactinib -0.022 | [7] 0 | encorafenib -0.048 | [8] -0.01 | alisertib -0.023 | [9] 0.006 | gefitinib 0.002

ATP5PD (UniProt O75947)
inactive: vemurafenib 0.006 | [1] -0.005 | barasertib 0.147 | [2] 0.017 | volasertib 0.039 | [3] 0 | [4] -0.014 | [5] 0.001 | saracatinib -0.034 | sotrastaurin -0.051 | alvocidib 0.019 | Tubastatin A 0.067 | [6] -0.024 | defactinib 0.004 | [7] 0.057 | encorafenib -0.033 | [8] -0.014 | alisertib 0.017 | [9] 0.005 | gefitinib -0.041

ATP13A3 (UniProt Q9H7F0)
inactive: vemurafenib -0.008 | [1] 0.04 | barasertib -0.003 | [2] 0.042 | volasertib 0 | [3] 0.021 | [4] -0.166 | [5] -0.022 | saracatinib 0.007 | sotrastaurin 0.035 | alvocidib -0.035 | Tubastatin A 0.017 | [6] 0.016 | defactinib -0.089 | [7] 0.001 | encorafenib 0.062 | [8] -0.089 | alisertib 0.106 | [9] -0.093 | gefitinib -0.098

B3GAT3 (UniProt O94766)
inactive: vemurafenib -0.018 | [1] -0.001 | barasertib 0.04 | [2] 0.049 | volasertib -0.058 | [3] 0.062 | [4] -0.013 | [5] -0.001 | saracatinib 0.094 | sotrastaurin 0.009 | alvocidib -0.03 | Tubastatin A -0.051 | [6] 0.039 | defactinib 0.069 | [7] 0.018 | encorafenib 0.196 | [8] -0.011 | alisertib 0.139 | [9] -0.023 | gefitinib -0.141

ATP1B3 (UniProt P54709)
inactive: vemurafenib -0.014 | [1] -0.031 | barasertib -0.033 | [2] 0.027 | volasertib 0.024 | [3] -0.022 | [4] -0.067 | [5] 0.038 | saracatinib -0.005 | sotrastaurin -0.002 | alvocidib -0.013 | Tubastatin A 0.01 | [6] -0.004 | defactinib 0.002 | [7] -0.001 | encorafenib -0.007 | [8] -0.068 | alisertib -0.01 | [9] -0.01 | gefitinib -0.015

Reprinted at random: 2 records from the list, in no set order.
B3GAT3 (UniProt O94766)
inactive: vemurafenib -0.018 | [1] -0.001 | barasertib 0.04 | [2] 0.049 | volasertib -0.058 | [3] 0.062 | [4] -0.013 | [5] -0.001 | saracatinib 0.094 | sotrastaurin 0.009 | alvocidib -0.03 | Tubastatin A -0.051 | [6] 0.039 | defactinib 0.069 | [7] 0.018 | encorafenib 0.196 | [8] -0.011 | alisertib 0.139 | [9] -0.023 | gefitinib -0.141

ATP13A3 (UniProt Q9H7F0)
inactive: vemurafenib -0.008 | [1] 0.04 | barasertib -0.003 | [2] 0.042 | volasertib 0 | [3] 0.021 | [4] -0.166 | [5] -0.022 | saracatinib 0.007 | sotrastaurin 0.035 | alvocidib -0.035 | Tubastatin A 0.017 | [6] 0.016 | defactinib -0.089 | [7] 0.001 | encorafenib 0.062 | [8] -0.089 | alisertib 0.106 | [9] -0.093 | gefitinib -0.098

(further entries)

ATP2A2 (UniProt P16615)
inactive: vemurafenib -0.007 | [1] -0.014 | barasertib 0.056 | [2] -0.005 | volasertib -0.002 | [3] 0.016 | [4] -0.047 | [5] -0.018 | saracatinib 0.015 | sotrastaurin 0.018 | alvocidib -0.019 | Tubastatin A 0 | [6] -0.021 | defactinib 0.015 | [7] -0.037 | encorafenib 0.053 | [8] -0.155 | alisertib 0.033 | [9] 0.028 | gefitinib 0.021

ATP2A3 isoform 2 (UniProt Q93084)
inactive: vemurafenib 0.013 | [1] 0.012 | barasertib 0.028 | [2] -0.039 | volasertib -0.06 | [3] -0.016 | [4] 0.02 | [5] -0.173 | saracatinib -0.035 | sotrastaurin 0.028 | alvocidib 0.081 | Tubastatin A 0.038 | [6] -0.018 | defactinib -0.016 | [7] -0.01 | encorafenib -0.043 | [8] 0.241 | alisertib -0.017 | [9] 0.022 | gefitinib -0.044

ATG3 (UniProt Q9NT62)
inactive: vemurafenib -0.086 | [1] 0.005 | barasertib -0.086 | [2] -0.089 | volasertib -0.008 | [3] 0.014 | [4] -0.041 | [5] 0.017 | saracatinib -0.002 | sotrastaurin -0.021 | alvocidib -0.026 | Tubastatin A 0.014 | [6] 0.032 | defactinib -0.016 | [7] -0.049 | encorafenib 0.031 | [8] -0.047 | alisertib 0.01 | [9] 0.001 | gefitinib -0.006

ASF1B (UniProt Q9NVP2)
inactive: vemurafenib 0.076 | [1] 0.042 | barasertib -0.041 | [2] 0.017 | volasertib -0.046 | [3] -0.04 | [4] -0.009 | [5] -0.064 | saracatinib 0.01 | sotrastaurin 0.025 | alvocidib -0.016 | Tubastatin A -0.002 | [6] 0.023 | defactinib -0.031 | [7] 0.027 | encorafenib 0.031 | [8] 0.072 | alisertib -0.1 | [9] 0.009 | gefitinib 0.152

ASRGL1 (UniProt Q7L266)
inactive: vemurafenib 0 | [1] -0.015 | barasertib -0.053 | [2] 0.044 | volasertib 0.025 | [3] -0.023 | [4] 0.012 | [5] 0.05 | saracatinib -0.006 | sotrastaurin -0.03 | alvocidib -0.025 | Tubastatin A 0.039 | [6] -0.01 | defactinib -0.011 | [7] 0.053 | encorafenib -0.013 | [8] -0.04 | alisertib -0.004 | [9] 0.009 | gefitinib -0.051

ATG16L1 (UniProt Q676U5)
inactive: vemurafenib 0.008 | [1] 0.009 | barasertib 0.002 | [2] 0.01 | volasertib 0.025 | [3] 0.015 | [4] 0.054 | [5] 0.027 | saracatinib 0.01 | sotrastaurin 0.026 | alvocidib 0 | Tubastatin A 0.034 | [6] -0.003 | defactinib -0.011 | [7] 0.022 | encorafenib -0.001 | [8] 0.025 | alisertib -0.009 | [9] -0.007 | gefitinib 0.021

ATP13A2 (UniProt Q9NQ11)
inactive: vemurafenib 0.02 | [1] 0.037 | barasertib 0 | [2] 0.066 | volasertib -0.011 | [3] -0.032 | [4] -0.035 | [5] 0.03 | saracatinib -0.03 | sotrastaurin 0.1 | alvocidib 0.01 | Tubastatin A 0.097 | [6] -0.022 | defactinib 0.008 | [7] 0.045 | encorafenib 0.026 | [8] -0.005 | alisertib 0.024 | [9] 0.023 | gefitinib -0.027
